In article PMC9376089, “Reformation of the chondroitin sulfate glycocalyx enables progression of AR-independent prostate cancer”:

How the values were obtained:
[1] = target: T1, AR-DBD (EMSA) (UniProt P10275); assay: EMSA; details: 500 ng AR-DBD, 100 fmol probe, poly(dI-dC); EMSA: 10 mM Tris pH 7.5, 50 mM KCl, DTT (1 mM; 2.5 mM with 0.25% Tween 20), 1 ug poly(dI-dC), room temperature 20 min; recombinant protein; label: IR700 (position not given)
T1 sequence (looked up, limits assumed): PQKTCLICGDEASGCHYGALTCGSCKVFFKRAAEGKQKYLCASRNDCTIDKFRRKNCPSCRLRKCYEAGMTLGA

[2] = target: T2, AR-DBD (biotinylated) (UniProt P10275); assay: BLI; details: 10 uM DNA, BLI: 20 mM Tris pH 8, 150 mM NaCl, 5% glycerol, 2 mM DTT, 0.1 mM PMSF, temperature not stated, recombinant protein, residues 556-629
T2 sequence (looked up): T1 sequence (looked up, limits assumed)

Sequence	binding result [2]	also measured
CTAGTTATGAGTACCTGCCGTACCCTTTC / TCGAGAAAGGGTACGGCAGGTACTCATAA [TMPRSS2-ARE (EMSA probe)]		binding result [1]: binds
CTTTTCTAGAACACTGGGGCATCTCCA (double strand) [CHST11-ARE (BLI)]	binds	
CTTTTCTATAATACTGGTGTATCTCCA (double strand) [CHST11-ARE-mutated]	no binding	
TATTTGCTTTTCTCTGGGGCATCTCCA (double strand) [CHST11-ARE-deletion]	no binding	
TTAGCTAGCACTTGCTGTTCTGCAAGT (double strand) [PSA-ARE (KLK3-ARE, BLI)]		binding result ([2]; positive control): binds

Construct, isoform or probe ends are uncertain for at least one entry. For some assays here: A negative result means that nothing was seen under these conditions. Tags and fusion partners may be left off the protein sequences shown. For some assays here: At least one verdict rests on a figure or table, not on a statement of the authors.
